These are yes or no findings as the source states them, for the method shown. Binding seen in cells or lysates may run through a third protein.
Molecular target: Flag-tagged Nedd4ΔWW (UniProt P46935)
Assay: co-IP; Myc-Runx2 co-transfected with flag-Nedd4 constructs in M-BMSCs; whole-cell lysates immunoprecipitated with anti-flag antibody, immunoblotted with anti-flag or anti-myc antibodies

Sequences of proteins named here, by UniProt entry; tags and fusion partners are left off. A change or cut given only in a name is not applied to a line headed by its entry.
UniProt P46935: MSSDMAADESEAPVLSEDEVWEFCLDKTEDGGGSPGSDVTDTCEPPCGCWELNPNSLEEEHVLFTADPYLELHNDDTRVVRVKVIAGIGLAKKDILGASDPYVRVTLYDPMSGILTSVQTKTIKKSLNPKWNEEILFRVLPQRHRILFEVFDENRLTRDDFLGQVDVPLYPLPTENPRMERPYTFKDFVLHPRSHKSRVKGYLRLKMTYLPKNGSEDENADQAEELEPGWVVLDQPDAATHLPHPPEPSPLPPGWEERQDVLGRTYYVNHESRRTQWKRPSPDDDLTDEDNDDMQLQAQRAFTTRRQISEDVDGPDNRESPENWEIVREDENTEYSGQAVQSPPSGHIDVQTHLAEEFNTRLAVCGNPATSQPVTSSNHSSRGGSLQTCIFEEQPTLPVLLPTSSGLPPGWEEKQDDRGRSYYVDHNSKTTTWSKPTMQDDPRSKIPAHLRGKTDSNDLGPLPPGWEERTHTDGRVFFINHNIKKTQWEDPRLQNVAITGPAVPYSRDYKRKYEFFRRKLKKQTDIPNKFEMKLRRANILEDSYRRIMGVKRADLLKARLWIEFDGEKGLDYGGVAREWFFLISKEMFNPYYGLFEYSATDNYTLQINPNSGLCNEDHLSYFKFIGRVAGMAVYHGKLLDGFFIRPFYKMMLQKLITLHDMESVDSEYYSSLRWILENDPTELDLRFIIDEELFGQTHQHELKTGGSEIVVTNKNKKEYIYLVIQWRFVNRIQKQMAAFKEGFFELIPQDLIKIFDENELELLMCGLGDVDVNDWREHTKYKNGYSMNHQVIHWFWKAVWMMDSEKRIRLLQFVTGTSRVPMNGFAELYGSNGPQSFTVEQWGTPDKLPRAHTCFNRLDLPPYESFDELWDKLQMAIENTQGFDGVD
UniProt Q08775: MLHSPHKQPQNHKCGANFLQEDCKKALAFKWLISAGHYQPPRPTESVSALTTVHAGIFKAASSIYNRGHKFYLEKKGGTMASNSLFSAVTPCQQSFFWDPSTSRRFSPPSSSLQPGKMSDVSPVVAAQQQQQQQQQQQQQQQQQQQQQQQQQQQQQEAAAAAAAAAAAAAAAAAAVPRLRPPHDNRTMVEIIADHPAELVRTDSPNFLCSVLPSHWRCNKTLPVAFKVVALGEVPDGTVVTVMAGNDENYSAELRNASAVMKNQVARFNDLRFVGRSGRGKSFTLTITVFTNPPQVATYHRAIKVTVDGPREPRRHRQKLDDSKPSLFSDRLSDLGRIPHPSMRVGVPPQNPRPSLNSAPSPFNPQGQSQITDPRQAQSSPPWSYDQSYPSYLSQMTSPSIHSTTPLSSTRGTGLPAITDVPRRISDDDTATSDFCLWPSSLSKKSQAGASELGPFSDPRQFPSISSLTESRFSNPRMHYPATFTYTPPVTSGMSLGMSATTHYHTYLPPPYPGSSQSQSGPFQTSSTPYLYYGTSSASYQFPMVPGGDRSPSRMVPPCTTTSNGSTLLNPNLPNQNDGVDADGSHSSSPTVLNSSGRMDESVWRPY

binding: no binding
Substance: Myc-Runx2 (from UniProt Q08775 1-607)
